Laboratory results from US7323260B2, “Lubricant, recording medium and carboxylic acid compound” (Sony Corporation, priority 2003, dated 2008).

Key:
[1] = Corrosion resistance: magnetic deterioration rate after storage in corrosive gas environment; settings: 5 hours, 35° C., 70% RH, 2 ppm H2S and 1 ppm HCl
[2] = Corrosion resistance: magnetic deterioration rate after storage in high-temperature, high-humidity environment; settings: one week at 60° C. and 80% RH
[3] = Friction coefficient of sample tape coated with the lubricant, after 1000 runs; settings: 1 mg/m^2 on carbon film layer
[4] = Shuttle durability of sample tape: playback output change after 100 runs on AIT2 deck; settings: difference between initial output and playback output after 100 runs; for Shuttle durability (dB) (−5° C.): 20% RH

O=C(O)CC(CC(=O)OCCC(F)(F)C(F)(F)C(F)(F)C(F)(F)F)C(=O)O (centres unmarked) [Example 21, CF3(CF2)3(CH2)2OCOCH2CH(COOH)CH2COOH]
Corrosive gas environment (magnetic deterioration rate) ([1]; Tables 17 and 18): ◯ (magnetic deterioration rate is 3% or less) | High-temperature, high-humidity environment (magnetic deterioration rate) ([2]; Tables 17 and 18): ◯ (magnetic deterioration rate is 3% or less) | Friction coefficient (40° C., 80% RH) [3]: 0.28 | Shuttle durability (dB) (40° C., 20% RH) [4]: −2.0 dB | Shuttle durability (dB) (−5° C.) [4]: −1.5 dB

CCCCCCCCCC(CCCCCCCCOC(=O)CC(CC(=O)O)C(=O)O)C(F)(F)C(F)(F)C(F)(F)C(F)(F)C(F)(F)C(F)(F)C(F)(F)C(F)(F)F (centres unmarked) [Example 25, CF3(CF2)7CH(C9H19)(CH2)8OCOCH2CH(COOH)CH2COOH]
Corrosive gas environment (magnetic deterioration rate) ([1]; Tables 17 and 18): ⊙ (magnetic deterioration rate is 1% or less) | High-temperature, high-humidity environment (magnetic deterioration rate) ([2]; Tables 17 and 18): ⊙ (magnetic deterioration rate is 1% or less) | Friction coefficient (40° C., 80% RH) [3]: 0.20 | Shuttle durability (dB) (40° C., 20% RH) [4]: −1.0 dB | Shuttle durability (dB) (−5° C.) [4]: −0.5 dB

CCCCCCCC(CCC(CCCCCCCC(=O)OC(CC(=O)O)C(=O)O)CCC(F)(F)C(F)(F)C(F)(F)C(F)(F)C(F)(F)C(F)(F)C(F)(F)C(F)(F)C(F)(F)C(F)(F)F)CCC(F)(F)C(F)(F)C(F)(F)C(F)(F)C(F)(F)C(F)(F)C(F)(F)C(F)(F)C(F)(F)C(F)(F)F (centres unmarked) [Example 20, CH3(CH2)3(CH2CH2CH(CH2CH2(CF2)9CF3))2(CH2)7COOCH(COOH)CH2COOH]
Corrosive gas environment (magnetic deterioration rate) ([1]; Tables 8 and 9): ⊙ (magnetic deterioration rate is 1% or less) | High-temperature, high-humidity environment (magnetic deterioration rate) ([2]; Tables 8 and 9): ◯ (magnetic deterioration rate is 3% or less) | Friction coefficient (40° C., 80% RH) [3]: 0.20 | Shuttle durability (dB) (40° C., 20% RH) [4]: −1.0 dB | Shuttle durability (dB) (−5° C.) [4]: −0.5 dB

CCCCCCCCCCCCCCCCCCOC(=O)CC(CC(=O)O)C(=O)O (centres unmarked) [Example 11, C18H37OCOCH2CH(COOH)CH2COOH]
Corrosive gas environment (magnetic deterioration rate) ([1]; Tables 8 and 9): ⊙ (magnetic deterioration rate is 1% or less) | High-temperature, high-humidity environment (magnetic deterioration rate) ([2]; Tables 8 and 9): ◯ (magnetic deterioration rate is 3% or less) | Friction coefficient (40° C., 80% RH) [3]: 0.26 | Shuttle durability (dB) (40° C., 20% RH) [4]: −1.9 dB | Shuttle durability (dB) (−5° C.) [4]: −1.5 dB
